Reference: patent US9650419B2 (Research & Business Foundation SUNGKYUNKWAN UNIVERSITY, priority 2014, dated 2017)

Assay: general procedure: Fmoc solid-phase peptide synthesis; H-rink amide resin (PCAS 0.53 mmol substitution); HBTU
Conditions: whole synthesis, Agilent 1260 HPLC, ZORBAX 300SB-C3

Substance: Ac-KVK EVF FVK EVF FVK EVY-NH2 (KVKEVFFVKEVFFVKEVY; beta-amino acids; N-acetyl, C-amide)
- final HPLC purity: 90% or above
